# Measurements: PubChem BioAssay AID493014 (National Center for Advancing Translational Sciences (NCATS), 2011)
# Some of the results follow. The main result of the screen is listed elsewhere. These columns were measured beside it and carry no call. Most of these compounds were active or inconclusive in the main read-out, so they are no random draw. Potencies come from curve fits of mixed quality, noted in brackets.
# Assay: qHTS Assay to Find Inhibitors of Chronic Active B-Cell Receptor Signaling
# Conditions: ABC-DLBCL IkBa-CBG/CBR reporter, luminescence ratio (green luciferase fused to IkBa over red control in TMD8 lymphoma cells), 4 h
# Outline: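 Cell line TMD8 (human ABC DLBCL), stably expressing tet-inducible CBG68-IkBa fusion and CBR; IMDM/0.5% FBS; cpd up to 46 uM; dox induction, 4 h, 37C/5% CO2; dual luminescence; green/red ratio; MG132 control.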
# [1] = measured here: CBR red luminescence, cell number
# [2] = measured here: IkBa-CBG green luminescence
Compound,AC50 [1],AC50 [2]
COc1ccc(C(=O)NCCS(=O)(=O)NC2CCCC2)cc1,"0.326 µM [rising, partial curve, poor fit]",–
Cc1cc(Cl)ccc1OCC(=O)N[C@@H](Cc1ccccc1)c1nc2ccccc2[nH]1,"23.1 µM [rising, single point]",–
Cc1ccc(SCCNC(=O)c2ccc(C)c(S(=O)(=O)Nc3ccccc3C)c2)cc1,"35.5 µM [falling, single point]",–
CCS(=O)(=O)N1CCC(C(=O)N2CCc3ccccc3C2)CC1,"0.112 µM [rising, full curve, poor fit]",–
S=C(Nc1ccc2nsnc2c1)N1CCCC1,"31.6 µM [falling, single point]",–
C=CCN=c1scc(C)n1/N=C/c1ccc(O)c(O)c1,"35.5 µM [falling, single point]",–
Cc1ccc(S(=O)(=O)n2nc(OC(=O)c3c(F)cccc3Cl)cc2N)cc1,"7.94 µM [falling, partial curve, poor fit]",–
O=[N+]([O-])c1ccc(COc2cccc(CNc3ccc(F)cc3)c2)cc1,"29.1 µM [falling, single point]",–
CCCSc1nsc(N)n1,"23.1 µM [rising, single point]",–
CN(C)c1ccc(S(=O)(=O)N2CCCCC2)cc1NC(=O)C1CSC2(C)CCC(=O)N12 (centres undefined),"20.6 µM [rising, single point]",–
CCn1cc(C(=O)Nc2ccc(F)c(F)c2)cn1,"4.61 µM [rising, full curve, poor fit]",–
COc1cccc(/C=C/C(=O)c2c(O)cc(C)oc2=O)c1O,"32.6 µM [falling, single point]",–
CC(OC(=O)Cc1c[nH]c2ccccc12)C(=O)Nc1ccccc1F (centres undefined),"1.64 µM [falling, full curve]",–
CC(C1CC1)N(Cc1ccccc1)C(=S)Nc1cccc(C(F)(F)F)c1 (centres undefined),"29.1 µM [falling, single point]",–
Cc1c(NC(=O)C2CCCO2)cccc1[N+](=O)[O-] (centres undefined),"0.731 µM [rising, full curve]",–
O=C(N/N=C/c1ccncc1)C1CC1(c1ccccc1)c1ccccc1 (centres undefined),"35.5 µM [falling, single point]",–
CS(=O)(=O)N1CCCC(C(=O)NCCc2ccc(Cl)cc2)C1 (centres undefined),"35.5 µM [falling, single point]",–
S=c1[nH]ncn1/N=C/c1ccc(Br)cc1,–,"35.5 µM [falling, single point]"
O=C(NNC(=O)c1cnccn1)c1ccc(Cl)c(Cl)c1,"8.91 µM [falling, partial curve]",–
CCCN(CC(=O)Nc1cccc(Br)c1)CC(=O)Nc1ccc(F)c(F)c1F,"23.1 µM [falling, partial curve, poor fit]","18.4 µM [rising, partial curve, poor fit]"
O=c1cc(CN2CCN(c3ccccc3F)CC2)c2cc3c(cc2o1)CCCC3,"25.9 µM [rising, single point]",–

Compound,AC50 [1],AC50 [2]
COc1ccc(CCNC(=O)CN2CCN(S(=O)(=O)c3ccc(Cl)cc3)CC2)cc1OC,"7.31 µM [falling, partial curve, poor fit]",–
COc1ccc(OC)c(-c2nnc3n2N=C(c2ccc(OC)c(OC4CCOC4)c2)CS3)c1 (centres undefined),"1.64 µM [rising, partial curve, poor fit]","1.64 µM [falling, full curve]"
CCOC(=O)c1ccc(NC(=O)COc2ccc(CNCCO)cc2OCC)cc1,"35.5 µM [falling, single point]",–
CCOC(=O)c1ccc(-c2ccc(C=O)o2)cc1,"14.1 µM [falling, single point]",–
O=C(N/N=C/c1ccc([N+](=O)[O-])cc1)c1cc2ccccc2o1,"7.94 µM [rising, partial curve, poor fit]",–
COc1ccc(-c2cccc(C(=O)N3CCOCC3)c2)cc1,"0.501 µM [rising, full curve, poor fit]",–
CS(=O)(=O)N1CCN(c2ccccc2NC(=O)C(c2ccccc2)c2ccccc2)CC1,"3.66 µM [falling, partial curve]",–
Cc1ccc2nc(NC(=O)CSc3[nH]c(=O)ncc3C)sc2c1,"20 µM [falling, partial curve, poor fit]",–
Brc1ccc(-c2nc(-c3ccccn3)no2)o1,"14.6 µM [falling, partial curve, poor fit]",–
COc1ccc2cc(C(=O)C3CCCN(C(=O)c4cnccn4)C3)ccc2c1 (centres undefined),"20 µM [falling, single point]",–
O=C1Nc2ccccc2Oc2cc([N+](=O)[O-])cc(Oc3ccccc3)c21,"20.6 µM [falling, single point]",–
CCCn1c(N)c(C(=O)CSc2nc3ccccc3c(=O)n2Cc2ccccc2)c(=O)[nH]c1=O,"12.6 µM [rising, partial curve]",–
Cc1cc(C(=O)N/N=C/c2ccc([N+](=O)[O-])cc2)c2ccccc2n1,"35.5 µM [rising, single point]",–
CS(=O)(=O)N1CCN(C(=O)Nc2ccccc2)CC1,"1 µM [rising, full curve, poor fit]",–
Cc1ccc(-n2c(SCc3ccccc3F)nc3[nH]ncc3c2=O)cc1Cl,"25.1 µM [falling, single point]",–
COCc1[nH]nc2c1C(c1ccccc1OC)C(C#N)=C(N)O2 (centres undefined),"1.3 µM [falling, full curve]",–
Cc1nn(C)cc1CNC(=O)COc1ccc(Cl)cc1Cl,"6.51 µM [rising, full curve, poor fit]","23.1 µM [falling, partial curve, poor fit]"
COc1ccc(C(F)(F)F)cc1N/C=C/c1nnnn1-c1ccc(C)cc1,"14.1 µM [rising, partial curve]",–
CCN1C(=O)C(CC(=O)Nc2ccc(F)cc2)N(Cc2ccc3c(c2)OCO3)C1=S (centres undefined),"8.91 µM [falling, partial curve, poor fit]",–
COc1ccccc1CNC(=O)c1ccccc1OC,"0.00461 µM [falling, full curve, poor fit]",–

# Gathered by group, the compounds so far containing a CF3 group (two)
Compound,AC50 [1],AC50 [2]
CC(C1CC1)N(Cc1ccccc1)C(=S)Nc1cccc(C(F)(F)F)c1 (centres undefined),"29.1 µM [falling, single point]",–
COc1ccc(C(F)(F)F)cc1N/C=C/c1nnnn1-c1ccc(C)cc1,"14.1 µM [rising, partial curve]",–
